Experimental data from patent US9839614B2, “Nanoparticle and polymer formulations for thyroid hormone analogs, antagonists, and formulations and uses thereof” (NANOPHARMACEUTICALS LLC, priority 2009, dated 2017).
Some of these results come from one statement about several compounds together.

Test system: matrigel plug angiogenesis
Test: Mouse matrigel model of angiogenesis (plug hemoglobin)
Format: in vivo, mice (C57BL/6NCr)
Conditions: 10 μg/plug
Protocol: Normal male mice (C57BL/6NCr) 6-8 weeks of age and weighing ˜20 g were purchased from Taconic farm. Animals were housed 4 per cage, in controlled conditions of temperature (20-24° C.); humidity (60-70%) and 12 hrs. light/dark cycle provided with food and water ad libitum. […] Aliquots of matrigel were placed into cold polypropylene tubes to prevent the matrigel from solidifying and the angiogenesis promoter added to matrigel with or without agonist. Mice were treated daily. Matrigel was subcutaneously injected as triple injection per animal at 100 μL/animal. At day 14 post plug implant all animals were killed in CO2 chamber and matrigel plugs were collected. Plug hemoglobin content was analyzed from three implants/mice (n=6 per group) to measure angiogenesis.
The matrigel plugs dissected from the mice were carefully stripped of any remaining peritoneum. The plugs were placed into 0.5 mL tube of ddH2O and homogenized for 5-10 min. […] Absorbance was read with a Microplate Manager ELISA reader at 540 nm. […] Hemoglobin concentration is a reflection of the number of blood vessels in the plugs.

CC(C)[Si](OC(=O)Cc1cc(I)c(Oc2cc(I)c(O)c(I)c2)c(I)c1)(C(C)C)C(C)C [Tetrac analog 5, Triisopropylsilyl-2-(4-(4-hydroxy-3,5-diiodophenoxy)-3,5-diiodophenyl)acetate]
Inhibition of FGF-induced angiogenesis, grade: strong (compounds were considered to be strong inhibitors if they achieved more than 50% inhibition as compared to the control)
